These are yes or no findings as the source states them, for the method shown. In cells and extracts the contact can be indirect. Some binding calls cover weakened binding; strength is not graded here.
Molecular target: S100A13, endogenous in C6 glioma cells (rat (endogenous in C6 glioma cells))
Assay: proximity ligation; Duolink in situ PLA on fixed C6 glioma cells with mouse anti-S100A13 and rabbit anti-ANXA2. Cells were sampled before and at 1.5 and 3 h after change to serum-free medium, with 100 µM amlexanox in the culture.

binding: binds
B1: annexin A2 (ANXA2), endogenous in C6 glioma cells (natural protein, rat (endogenous in C6 glioma cells), UniProt Q07936 1-339, looked up)
chain: MSTVHEILCKLSLEGDHSTPPSAYGSVKPYTNFDAERDALNIETAIKTKGVDEVTIVNILTNRSNAQRQDIAFAYQRRTKKELPSAMKSALSGHLETVMLGLLKTPAQYDASELKASMKGLGTDEDSLIEIICSRTNQELQEINRVYKEMYKTDLEKDIISDTSGEFRKLLVALAKGKRAEDGSVIDYELIDQDARELYDAGVKRKGTDVPKWISIMTERSVCHLQKVFERYKSYSPYDMLESIRKEVKGDLENAFLNLVQCIQNKPLYFADRLYDSMKGKGTRDKVLIRIMVSRSEVDMLKIRSEFKRKYGKSLYYFIQQDTKGDYQKALLYLCGGDD
notes: annexin A2, rat, endogenous in C6 glioma cells; In whole cell extracts it ran as a single band; also called dimeric ANXA2 of 63 kDa; ANXA2 dimer; source: endogenous, rat C6 glioma cells (cytosolic fraction; fixed cells for in situ PLA)

Source: publication PMC7998613, “Annexin A2 Flop-Out Mediates the Non-Vesicular Release of DAMPs/Alarmins from C6 Glioma Cells Induced by Serum-Free Conditions” (Cells, 2021)
